# ± gives the standard deviation. The list shows a part of the results, in another mix than the full data. The uncertainty is large for many entries.
# Tested on: MIWI (PIWIL1) piRISC loaded with L1MC piRNA (30 nt)
# Experiment: pre-steady-state target cleavage rate (min^-1); MIWI and MILI are mouse PIWI proteins and EfPiwi is from a freshwater sponge; tags in brackets are library labels; higher = faster piRNA-guided slicing of the target
# Conditions: guide: L1MC piRNA 5'p-UAACUAAAUACUAUGCAAGCUGUAGGUCCU
# Outline: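 Cleave-'n-Seq reactions paired 0.1 nM transcribed, DNA-blocked target RNA library with 1 nM active affinity-purified piRISC holding one synthetic guide, plus or minus 500 nM GTSF1 partner protein, in HEPES–potassium acetate buffer at 33 °C for 0–8 or 0–960 min. After sequencing of uncleaved targets and normalisation to depth and weakly complementary targets, the pre-steady-state cleavage rate was taken from a burst-and-steady-state fit. Three trials were pooled, and k3 was capped at 0.0001 min^-1.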
# [1] = auxiliary factor: 500 nM mouse GTSF1
# [2] = auxiliary factor: none (no GTSF1)
Sequence,pre-steady-state target cleavage rate [1],pre-steady-state target cleavage rate [2]
UCCACCUACAUCUUGCAUAGUAUUUAGUUA,0.85 ± 0.036,0.0567 ± 0.0096
AGGUGCUACAGCUUGCAUAGUAUUUAGUUA,1.23 ± 0.064,0.0832 ± 0.016
AGGACCUAUCAGCUUGCAUAGUAUUUAGUUA,1.25 ± 0.055,0.0769 ± 0.013
AGGACCUACCGCUUGCAUAGUAUUUAGUUA,1.43 ± 0.082,0.0866 ± 0.017
AGGACCUAGUCCUUGCAUAGUAUUUACAAA,0.256 ± 0.046,0.00328 ± 0.0019
UCGACCAUACAGCUUGCAUAGUAUUUAGUUA,0.86 ± 0.039,0.0901 ± 0.015
UCCACCAACUGCUUGCAUAGUAUUUAGUUA,0.828 ± 0.036,0.0532 ± 0.0097
AGGACCUACAGCUUGGUUAGUAUUUACAAA,0.0786 ± 0.021,0.000943 ± 0.0052
AGGACCUACAGCUUGCAUGGUAUUUAGUUA,1.35 ± 0.073,0.0615 ± 0.012
UGCUCCUACAGCUUGCAUAGUAUUUAGAAA,0.429 ± 0.033,0.00714 ± 0.0022
AGGACCUUACAGCUUGCAUAGUAUUUAGUUA,1.33 ± 0.06,0.0925 ± 0.016
UCCUGGAUGUGCUUGCAUAGUAUUUUAGUUA,0.128 ± 0.018,0.021 ± 0.0069
AGGACCUACAGGAAGCAUAGUAUUUACAAA,0.32 ± 0.064,0.00101 ± 0.0064
UCCACCUACAGGUUGCAUAGUAUUUACAAA,0.336 ± 0.052,0.00135 ± 0.004
UGGACCUACAGCUUGCUAUGUAUUUACAAA,0.00302 ± 0.0033,0.000644 ± 0.0058
AGGACCUACAGCUUGCAUAGUAAUUAGAAA,0.475 ± 0.071,0.00445 ± 0.0038
UCGACCUACAGCUGCAUAGUAUUUAGUUA,1.3 ± 0.079,0.00665 ± 0.0025
UCCAGCUACAGCUUGCAUAGUUUUUAGUUA,0.253 ± 0.026,0.0203 ± 0.0032
UGCACCUUCAGCUUGCAUAGUAUUUAGUUA,1.08 ± 0.091,0.0562 ± 0.011

# Reformatted: entries from further up
Sequence | pre-steady-state target cleavage rate [1] | pre-steady-state target cleavage rate [2]
UCCACCAACUGCUUGCAUAGUAUUUAGUUA | 0.828 ± 0.036 | 0.0532 ± 0.0097
AGGACCUACAGCUUGGUUAGUAUUUACAAA | 0.0786 ± 0.021 | 0.000943 ± 0.0052

# More entries

Sequence,pre-steady-state target cleavage rate [1],pre-steady-state target cleavage rate [2]
ACGACGUACAGCUUGCAUAGUAUUUAGUUA,1.55 ± 0.071,0.077 ± 0.013
AGGACCUACAUGCUUGCAUAGUAUUUAGUUA,0.767 ± 0.056,0.0684 ± 0.013
AGGACGAUCAGCUUGCAUAGUAUUUAGAAA,0.384 ± 0.061,0.0104 ± 0.0037
UCGACGUACACCUUGCAUAGUAUUUAGUUA,1.23 ± 0.026,0.0575 ± 0.0089
UCGACCUUCAGCUUCCAUAGUAUUUAGUUA,0.0473 ± 0.011,0.00293 ± 0.0014
UCGACCUACAGCUUGCUAUAGUAUUUAGUUA,0.0661 ± 0.018,0.0011 ± 0.0071
UGGACCUACAGCUUGCUAUGUAUUUUCAAA,0.00146 ± 0.0061,0.000207 ± 0.011
AGGACCUAACAGCUUGCAUAGUAUUUAGUUA,1.1 ± 0.059,0.0788 ± 0.016
UCCACCAACAGCAUGCAUAGUAUUUAGUUA,0.943 ± 0.032,0.0211 ± 0.0046
AGGACCUACAGCAACCAUAGUAUUUAGUUA,0.426 ± 0.039,0.00122 ± 0.004
AGACCUACAGCUUGCAUAGUAUUUAGUUA,1.46 ± 0.052,0.0902 ± 0.017
UCCAACUACAGCUUGCAUAGUAUUUAGUUA,0.646 ± 0.038,0.0478 ± 0.0076
UGGACCUACAGCUUCCAUAGUAUUUUCAAA,0.00202 ± 0.0044,0.000626 ± 0.0042
UGGACCUACAGCUUGCAUAGCAUUUAGUUA,0.379 ± 0.025,0.0275 ± 0.0061
UGGUCCUUCAGCUUGCAUAGUAUUUAGUUA,1.22 ± 0.059,0.0643 ± 0.011
UCCACCUACAGCUUGCAUAGUAUUUAGUUA [g2:g27:cont:t1A],0.987 ± 0.051,0.0744 ± 0.015
UCGACCUACAUGCUUGCAUAGUAUUUAGUUA,0.913 ± 0.037,0.0554 ± 0.012
UCGUCCUACAGCUUGCAAAGUAUUUAGUUA,1.3 ± 0.032,0.0388 ± 0.0068
UCCUGGAUGAGCUUGCAUUCUAUUUAGAAA,0.00163 ± 0.0091,0.0005 ± 0.016

Sequence,pre-steady-state target cleavage rate [1],pre-steady-state target cleavage rate [2]
UCCACCUAGUCCUUGCAUAGUAUUUAGUAA,0.142 ± 0.021,0.00921 ± 0.0015
UGGACACUACAGCUUGCAUAGUAUUUAGUUA,1.04 ± 0.063,0.0643 ± 0.0081
AGGACCUACAGCUUGCUUAGUAUUUAGAAA,0.486 ± 0.063,0.00737 ± 0.0028
AGCUGCUACAGCUUGCAUAGUAUUUAGUAA,0.977 ± 0.11,0.0202 ± 0.0038
UGGACCUUCAGCUUGGAUAGUAUUUAGUUA,1.59 ± 0.068,0.0597 ± 0.011
AGGAGCUACAGCAUGCAUAGUAUUUAGUUA,1.37 ± 0.058,0.0574 ± 0.01
AGGACCUCACAGCUUGCAUAGUAUUUAGUUA,1.28 ± 0.064,0.102 ± 0.017
UCGACCUACAGCUUGCUUAGUAUAUAGUUA,0.879 ± 0.063,0.0168 ± 0.004
UGGACCUACAGCUUGCAAUCUAUUUUCAAA,0.00162 ± 0.005,0.000276 ± 0.0099
UGGACCUACAGCUUGCAUAGUAUUUAGUUUA,1.56 ± 0.086,0.075 ± 0.014
UGGACCUACAGAUUGCAUAGUAUUUAGUUA,1.12 ± 0.11,0.042 ± 0.0077
UCGACGAACAGCUUGCAUAGUAUUUAGUUA,1.38 ± 0.049,0.0836 ± 0.015
UCCUGGAUGUCGAUGCGUAGUAUUUAGUUA,0.00103 ± 0.0071,0.000921 ± 0.0071
UGGACCUACAGCUUGCUAGUAUUUAGUUA,0.0515 ± 0.013,0.00386 ± 0.0022
UGGACCUACAGCUUGCUAAGUAUUUAGUUA,0.2 ± 0.022,0.00384 ± 0.002
AGGAGCAACAGCUUGCAUAGUAUUUAGUUA,1.67 ± 0.069,0.0907 ± 0.016
UGGACCUACACGUUGCAUAGUAUUUAGUAA,0.575 ± 0.039,0.00987 ± 0.0024
UCCACUCUACAGCUUGCAUAGUAUUUAGUUA,0.884 ± 0.029,0.0688 ± 0.012
